Test results from patent US20210071229A1, “FIBRINOGEN TEST” (DSM IP Assets B.V., priority 2018, published 2021).
“And” between values parts separate entries of the source, which are not always exact repeats. Identical values can stand only once. Like-named read-outs stand apart in the source and are kept apart here. At least one compound was matched to its structure with a doubt left.

Protein sequences, listed by entry. Tags and fused reporters are not part of them. Residues count along the entry.
UniProt P04971, 25-255 limits assumed: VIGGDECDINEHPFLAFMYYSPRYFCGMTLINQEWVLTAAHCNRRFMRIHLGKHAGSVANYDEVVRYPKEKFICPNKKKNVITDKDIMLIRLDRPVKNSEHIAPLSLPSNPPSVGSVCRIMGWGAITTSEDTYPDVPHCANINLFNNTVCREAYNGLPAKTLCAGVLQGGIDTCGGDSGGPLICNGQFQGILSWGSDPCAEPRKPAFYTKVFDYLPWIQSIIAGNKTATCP

Experiments:
batroxobin = batroxobin (Bothrops atrox, UniProt P04971); type: biochemical, Bothrops moojeni

[H]/N=C(/N)c1ccc(NCc2nc3cc(C(=O)N(CCC(=O)O)c4ccccn4)ccc3n2C)cc1 [Dabigatran]
PT-test CT (control plasma; 31 ng/ml in plasma): 10.58 s and 10.69 s
PT-test Mean (control plasma; 31 ng/ml in plasma): 10.64 s
PT-test delay (control plasma; 31 ng/ml in plasma): 6%
PT-test CT (control plasma; 500 ng/ml in plasma): 19.81 s and 19.98 s
PT-test Mean (control plasma; 500 ng/ml in plasma): 19.90 s
PT-test delay (control plasma; 500 ng/ml in plasma): 97%
effect on Vmax of batroxobin-Pefachrome TH substrate (batroxobin): very slight reduction
effect on enzyme activity of batroxobin (batroxobin): did not significantly suppress
